Experimental findings from PubChem BioAssay AID2284369 (EPA ToxCast) are described below.

The subject of this test is frog Estrogen Receptor (ER1), gene 398734. In words: ATG_frER1_EcoTox2: Attagene TRANS-FACTORIAL EcoTox-2 HepG2 Assay for frog Estrogen Receptor (ER1). As for the experimental part: ATG_EcoTox2 is a cell-based, multiplexed assay created by modifying the existing Attagene TRANS-FACTORIAL system to include a panel of nuclear receptors from some or all the following species: human (Homo sapiens), african clawed frog (Xenopus laevis), rainbow trout (Oncorhynchus mykiss), japanese medaka (Oryzias latipes), and zebrafish (Danio rerio). The ECOTOX2-FACTORIAL format uses HepG2, a human liver cell line, with measurements taken at 24 hours after chemical dosing in a 24-well plate. ATG_frER1_EcoTox2 is one of 29 assay components calculated in the ATG_EcoTox2 assay. It is designed to make measurements of mRNA induction, a form of inducible reporter, as detected with fluorescence intensity signals by Reverse transcription polymerase chain reaction (RT-PCR) and Capillary electrophoresis technology.The assay endpoint ATG_frER1_EcoTox2 was analyzed in the positive analysis fitting direction relative to DMSO as the negative control and baseline of activity. Using a type of inducible reporter, measures of mRNA for gain-of-signal activity can be used to understand the reporter gene at the transcription factor-level as they relate to the gene ER. Furthermore, this assay endpoint can be referred to as a primary readout, because this assay has produced multiple assay endpoints where this one serves a reporter gene function. […]

The entries are a selection whose mix differs from that of the whole data set. Inconclusive results are not listed. Activity calls are given as the source filed them. How the source made its calls: active means hit-call score of the fitted dose curve at least 0.9, where 1 is the maximum; inconclusive means response in the unintended direction; inactive means score below 0.9.

With `CC(C)(Oc1ccc(Cl)cc1)C(=O)O`, the compound was classed as inactive.
